# Literature values as cited in US9173836B2, “Pharmaceutical preparations for treatments of diseases and disorders of the breast” (FemmeParma Holding Company, Inc., priority 2003, dated 2015).
# At least one compound was matched to its structure with a doubt left.
# Tested on: women treated for cyclical mastalgia
# Settings: 5 mg per day; cited from earlier work
smiles,measurement,value
CC(C)C[C@H]1C(=O)N2CCC[C@H]2[C@]2(O)O[C@](NC(=O)[C@@H]3C=C4c5cccc6[nH]c(Br)c(c56)C[C@H]4N(C)C3)(C(C)C)C(=O)N12 [Bromocriptine],Women in whom treatment was effective,up to 65%
